Laboratory results taken from patent US9517222B2, “Method for the treatment of senile dementia of the Alzheimer's type” (Phenomenome Discoveries Inc., priority 2007, dated 2016).

How the values were obtained:
[1] = Serum ethanolamine phospholipid ratios to PtdEt 16:0/18:0 (M01) in human cohorts
[2] = Serum ethanolamine phospholipid levels in human cohorts (dementia severity, post-mortem pathology, age) by flow-injection MS/MS
[3] = serum, females, post mortem SDAT
[4] = serum, females, post mortem control

For `CCCCC/C=C\C/C=C\CCCCCCCC(=O)OC(CO/C=C\CCCCCCCCCCCCCCCC)COP(=O)(O)OCCN` (centres unmarked) [Metabolite M21, Plasmenyl 18:0/18:2], the “Ratio of ethanolamine phospholipid ratios to M01 between cohorts” value (from here on “Ratio … to M01 between cohorts”) ([1]; AD, All to CN, Male) was 0.782, the “Ratio … to M01 between cohorts” value ([1]; ADAS 5-19 to CN, Male) was 0.821 and the “Ratio … to M01 between cohorts” value ([1]; ADAS 20-39 to CN, Male) was 0.770. For the same molecule, the “Ratio … to M01 between cohorts” value ([1]; ADAS 40-70 to CN, Male) was 0.738, the “Average serum ethanolamine phospholipid ratio to M01, Mean” value ([1]; Cognitive Normal, Male, serum) was 2.377 and the “Average serum ethanolamine phospholipid ratio to M01, Mean” value ([1]; SDAT, ADAS 5-19, Male, serum) was 1.951. The “Average serum ethanolamine phospholipid ratio to M01, Mean” value ([1]; SDAT, ADAS 20-39, Male, serum) was 1.829, the “Average serum ethanolamine phospholipid ratio to M01, Mean” value ([1]; SDAT, ADAS 40-70, Male, serum) was 1.754 and the “Average serum ethanolamine phospholipid ratio to M01, Mean” value ([1]; SDAT_all, Male, serum) was 1.857. The “Ethanolamine Phospholipid Ratio to M01, Mean, Age Ctl, 30-39, Female” value ([1]; human serum, females aged 30-39) was 2.885, the “Ethanolamine Phospholipid Ratio to M01, Mean, Age Ctl, 40-49, Female” value ([1]; human serum, females aged 40-49) was 2.537 and the “Ethanolamine Phospholipid Ratio to M01, Mean, Age Ctl, 50-59, Female” value ([1]; human serum, females aged 50-59) was 2.331. The “Ratio of Ethanolamine Phospholipid Ratio to M01, 50-59 vs. 40-49, Female” value ([1]; human serum, females aged 50-59 vs. females aged 40-49) was 0.919, the “Ethanolamine Phospholipid Ratio to M01, Mean, Age Ctl, 60-69, Female” value ([1]; human serum, females aged 60-69) was 1.757 and the “Ratio of Ethanolamine Phospholipid Ratio to M01, 60-69 vs. 40-49, Female” value ([1]; human serum, females aged 60-69 vs. females aged 40-49) was 0.693. For the same molecule, the “Ethanolamine Phospholipid Ratio to M01, Mean, Age Ctl, 70+_Female” value ([1]; human serum, females aged 70+) was 1.935, the “Ratio of Ethanolamine Phospholipid Ratio to M01, 70+ vs. 40-49, Female” value ([1]; human serum, females aged 70+ vs. females aged 40-49) was 0.763 and the “Ratio of Ethanolamine Phospholipid Ratio to M01, 50-59 vs. 40-49, Male” value ([1]; human serum, males aged 50-59 vs. males aged 40-49) was 1.057. The “Ratio of Ethanolamine Phospholipid Ratio to M01, 60-69 vs. 40-49, Male” value ([1]; human serum, males aged 60-69 vs. males aged 40-49) was 0.820, the “Ratio of Ethanolamine Phospholipid Ratio to M01, 70+ vs. 40-49, Male” value ([1]; human serum, males aged 70+ vs. males aged 40-49) was 0.851 and the “Ratio of ethanolamine phospholipid ratio to M01, ADAS 5-19 to CN, Female” value ([1]; serum, females, ADAS 5-19 vs cognitive normal) was 0.879. For the same molecule, the “Ratio of ethanolamine phospholipid ratio to M01, ADAS 20-39 to 5-19, Female” value ([1]; serum, females, ADAS 20-39 vs ADAS 5-19) was 0.943, the “Ratio of ethanolamine phospholipid ratio to M01, ADAS 20-39 to CN, Female” value ([1]; serum, females, ADAS 20-39 vs cognitive normal) was 0.829 and the “Ratio of ethanolamine phospholipid ratio to M01, ADAS 40-70 to 5-19, Female” value ([1]; serum, females, ADAS 40-70 vs ADAS 5-19) was 0.720. For the same molecule, the “Ratio of ethanolamine phospholipid ratio to M01, ADAS 40-70 to 20-39, Female” value ([1]; serum, females, ADAS 40-70 vs ADAS 20-39) was 0.763, the “Ratio of ethanolamine phospholipid ratio to M01, ADAS 40-70 to CN, Female” value ([1]; serum, females, ADAS 40-70 vs cognitive normal) was 0.633 and the “Ethanolamine phospholipid ratio to M01, Mean, SDAT, ADAS 5-19, Female” value ([1]; serum, females, SDAT ADAS 5-19) was 2.039. For the same molecule, the “Ethanolamine phospholipid ratio to M01, Mean, SDAT, ADAS 20-39, Female” value ([1]; serum, females, SDAT ADAS 20-39) was 1.922, the “Ethanolamine phospholipid ratio to M01, Mean, SDAT, ADAS 40-70, Female” value ([1]; serum, females, SDAT ADAS 40-70) was 1.467 and the “Ratio of ethanolamine phospholipid ratio to M01, AD, All to CN, Female” value ([1]; serum, females, all AD vs cognitive normal) was 0.776. For the same molecule, the “Ethanolamine phospholipid ratio to M01, Mean, SDAT_all Female” value ([1]; serum, females, all SDAT) was 1.798, the “Ratio of ethanolamine phospholipid ratio to M01, Autopsy AD vs. Control, Female” value ([1]; serum, females, autopsy AD vs post mortem control) was 0.674 and the “Ethanolamine phospholipid ratio to M01, Mean, Cognitive Normal, Female” value ([1]; serum, females, cognitive normal) was 2.318. The “Ethanolamine phospholipid ratio to M01, Mean, Post Mortem SDAT Female” value [1, 3] was 0.421, the “Ethanolamine phospholipid ratio to M01, Mean, Post Mortem Ctl, Female” value [1, 4] was 0.624 and the “Ratio of ethanolamine phospholipid ratio to M01, ADAS 20-39 to 5-19, Male” value ([1]; serum, males, SDAT ADAS 20-39 vs ADAS 5-19) was 0.937. For the same molecule, the “Ratio of ethanolamine phospholipid ratio to M01, ADAS 40-70 to 5-19, Male” value ([1]; serum, males, SDAT ADAS 40-70 vs ADAS 5-19) was 0.899, the “Ratio of ethanolamine phospholipid ratio to M01, ADAS 40-70 to 20-39, Male” value ([1]; serum, males, SDAT ADAS 40-70 vs ADAS 20-39) was 0.959 and the “Ethanolamine phospholipid ratio to M01, Mean, Age Ctl, 30-39, Male” value ([1]; serum, males, age control 30-39) was 2.395. The “Ethanolamine phospholipid ratio to M01, Mean, Age Ctl, 40-49, Male” value ([1]; serum, males, age control 40-49) was 2.163, the “Ethanolamine phospholipid ratio to M01, Mean, Age Ctl, 50-59, Male” value ([1]; serum, males, age control 50-59) was 2.287 and the “Ethanolamine phospholipid ratio to M01, Mean, Age Ctl, 60-69, Male” value ([1]; serum, males, age control 60-69) was 1.773. For the same molecule, the “Ethanolamine phospholipid ratio to M01, Mean, Age Ctl, 70+_Male” value ([1]; serum, males, age control 70+) was 1.840, the “Ethanolamine phospholipid ratio to M01, Mean, Post Mortem SDAT Male” value ([1]; serum, males, post mortem SDAT) was 0.371 and the “Ratio of ethanolamine phospholipid ratio to M01, SDAT vs Control (post mortem, males)” value ([1]; serum, males, post mortem SDAT vs post mortem control) was 0.605. The “Ethanolamine phospholipid ratio to M01, Mean, Post Mortem Ctl, Male” value ([1]; serum, males, post mortem control) was 0.613, the “Ratio of serum levels” value ([2]; AD, All to CN, Male) was 0.818 and the “Ratio of serum levels” value ([2]; ADAS 5-19 to CN, Male) was 0.852. The “Ratio of serum levels” value ([2]; ADAS 20-39 to 5-19, Male) was 0.934, the “Ratio of serum levels” value ([2]; ADAS 20-39 to CN, Male) was 0.796 and the “Ratio of serum levels” value ([2]; ADAS 40-70 to 5-19, Male) was 0.889. The “Ratio of serum levels” value ([2]; ADAS 40-70 to 20-39, Male) was 0.952, the “Ratio of serum levels” value ([2]; ADAS 40-70 to CN, Male) was 0.757 and the “Serum level, Mean” value ([2]; Cognitive Normal, Female) was 0.265. The “Average serum level, Mean” value ([2]; Cognitive Normal, Male) was 0.265, the “Serum level, Mean” value ([2]; Post Mortem Ctl, Male) was 0.072 and the “Serum level, Mean” value ([2]; Post Mortem SDAT Male) was 0.033. The “Ratio of serum levels” value ([2]; Post mortem SDAT vs Control, Male) was 0.464, the “Serum level, Mean” value ([2]; SDAT, ADAS 5-19, Female) was 0.219 and the “Average serum level, Mean” value ([2]; SDAT, ADAS 5-19, Male) was 0.226. For the same molecule, the “Serum level, Mean” value ([2]; SDAT, ADAS 20-39, Female) was 0.205, the “Average serum level, Mean” value ([2]; SDAT, ADAS 20-39, Male) was 0.211 and the “Serum level, Mean” value ([2]; SDAT, ADAS 40-70, Female) was 0.165. The “Average serum level, Mean” value ([2]; SDAT, ADAS 40-70, Male) was 0.201, the “Serum level, Mean” value ([2]; SDAT_all, Female) was 0.195 and the “Average serum level, Mean” value ([2]; SDAT_all, Male) was 0.217. The “Ratio, ADAS 5-19 to CN, Female” value ([2]; serum level ratio, females, ADAS 5-19 vs CN) was 0.826, the “Ratio, ADAS 20-39 to 5-19, Female” value ([2]; serum level ratio, females, ADAS 20-39 vs ADAS 5-19) was 0.939 and the “Ratio, ADAS 20-39 to CN, Female” value ([2]; serum level ratio, females, ADAS 20-39 vs CN) was 0.776. For the same molecule, the “Ratio, ADAS 40-70 to 5-19, Female” value ([2]; serum level ratio, females, ADAS 40-70 vs ADAS 5-19) was 0.755, the “Ratio, ADAS 40-70 to 20-39, Female” value ([2]; serum level ratio, females, ADAS 40-70 vs ADAS 20-39) was 0.804 and the “Ratio, ADAS 40-70 to CN, Female” value ([2]; serum level ratio, females, ADAS 40-70 vs CN) was 0.624. For the same molecule, the “Ratio, 50-59 vs. 40-49, Female” value ([2]; serum level ratio, females, age 50-59 vs 40-49) was 0.829, the “Ratio, 60-69 vs. 40-49, Female” value ([2]; serum level ratio, females, age 60-69 vs 40-49) was 0.763 and the “Ratio, 70+ vs. 40-49, Female” value ([2]; serum level ratio, females, age 70+ vs 40-49) was 0.832. For the same molecule, the “Ratio, AD, All to CN, Female” value ([2]; serum level ratio, females, all AD vs cognitively normal) was 0.737, the “Ratio, Autopsy AD vs. Control, Female” value ([2]; serum level ratio, females, autopsy AD vs control) was 0.414 and the “Ratio, 50-59 vs. 40-49, Male” value ([2]; serum level ratio, males, age 50-59 vs 40-49) was 1.048. The “Ratio, 60-69 vs. 40-49, Male” value ([2]; serum level ratio, males, age 60-69 vs 40-49) was 0.941, the “Ratio, 70+ vs. 40-49, Male” value ([2]; serum level ratio, males, age 70+ vs 40-49) was 1.000 and the “Mean serum level, Age Ctl, 30-39, Female” value ([2]; serum, females, age 30-39) was 0.294. For the same molecule, the “Mean serum level, Age Ctl, 40-49, Female” value ([2]; serum, females, age 40-49) was 0.275, the “Mean serum level, Age Ctl, 50-59, Female” value ([2]; serum, females, age 50-59) was 0.228 and the “Mean serum level, Age Ctl, 60-69, Female” value ([2]; serum, females, age 60-69) was 0.210. For the same molecule, the “Mean serum level, Age Ctl, 70+, Female” value ([2]; serum, females, age 70+) was 0.229, the “Mean serum level, Post Mortem SDAT, Female” value [2, 3] was 0.041 and the “Mean serum level, Post Mortem Ctl, Female” value [2, 4] was 0.100. For the same molecule, the “Mean serum level, Age Ctl, 30-39, Male” value ([2]; serum, males, age 30-39) was 0.294, the “Mean serum level, Age Ctl, 40-49, Male” value ([2]; serum, males, age 40-49) was 0.236 and the “Mean serum level, Age Ctl, 50-59, Male” value ([2]; serum, males, age 50-59) was 0.247. The “Mean serum level, Age Ctl, 60-69, Male” value ([2]; serum, males, age 60-69) was 0.222 and the “Mean serum level, Age Ctl, 70+, Male” value ([2]; serum, males, age 70+) was 0.236.

Where no unit stands, none is given here, and values compare only within one read-out.
